Results are given in words; binding and its absence hold for the method and conditions named. Binding seen in cells or lysates may run through a third protein. For part of these data: A result given as binding can be weak or reduced; the word gives no strength. Tags and fused reporters may be left off the sequences shown.

The first assay addresses T1, Flag-FBXO45 (human) (UniProt P0C2W1).
T1 sequence: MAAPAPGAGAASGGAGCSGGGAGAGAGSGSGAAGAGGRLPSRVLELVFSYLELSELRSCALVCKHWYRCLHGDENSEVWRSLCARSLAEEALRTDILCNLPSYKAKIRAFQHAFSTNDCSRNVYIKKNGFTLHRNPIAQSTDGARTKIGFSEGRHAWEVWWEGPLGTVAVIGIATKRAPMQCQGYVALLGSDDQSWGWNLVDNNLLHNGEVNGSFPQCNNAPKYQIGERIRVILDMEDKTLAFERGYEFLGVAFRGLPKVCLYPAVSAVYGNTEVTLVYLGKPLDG
Nature of the assay: co-IP; HEK293T cells co-transfected with a Flag-tagged and an eGFP-fused protein; anti-Flag M2 affinity gel, 4°C overnight; 20 mM Tris pH 7.8, 150 mM NaCl, 10% glycerol, 0.3% Triton-X100; Western blot with anti-Flag and anti-GFP. (Immunoblotting shows a protein as a band on a membrane.)
For eGFP-Hey1 ΔC-ter (domain or fragment), the binding entry is given as “binds”.
Same read-out and setting: the same measure for eGFP-Hey1 ΔbHLH (from UniProt Q9WV93): “binds”; for eGFP-Hey1 ΔO (from UniProt Q9WV93): “binds”; for “eGFP-Hey1 HLH domain (domain or fragment)”: “binds”.
As to eGFP-Hey1 Δb (from UniProt Q9WV93), the binding entry is on record as “binds”.

Another assay concerns the target T2, Flag-Strep (FS)-Hey1 (UniProt Q9WV93).
T2 sequence: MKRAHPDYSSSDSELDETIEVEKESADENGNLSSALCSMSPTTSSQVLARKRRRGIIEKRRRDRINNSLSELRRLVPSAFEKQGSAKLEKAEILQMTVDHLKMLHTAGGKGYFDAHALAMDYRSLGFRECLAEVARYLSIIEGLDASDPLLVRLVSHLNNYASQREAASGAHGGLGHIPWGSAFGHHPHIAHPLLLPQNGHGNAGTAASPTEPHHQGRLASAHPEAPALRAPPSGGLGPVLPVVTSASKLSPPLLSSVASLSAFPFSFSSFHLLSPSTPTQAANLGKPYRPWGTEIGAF
Nature of the assay: co-IP; Dox-induced HEK293 lines (FS-Hey1, FS-Hey2, Flag-HeyL, FS-Hes1) transfected with eGFP constructs; anti-Flag M2 affinity gel, 4°C overnight; 20 mM Tris pH 7.8, 150 mM NaCl, 10% glycerol, 0.3% Triton-X100; Western blot with anti-Flag and anti-GFP.
For “eGFP-FBXO45ΔS (human) (domain or fragment)”, the binding entry was “no binding”.

Values taken from article PMC4466309.
